The nature of the data set: In-vitro dissolution, standard protocol according to USP 24 monographs. Type of data set: physicochemical. Particulars: HPLC or UV/VIS detection, control (drug as received) in parenthesis. Here is the method: The dissolution progress was measured after 5, 10, 15, and 60 minutes using either High Pressure Liquid Chromatography (HPLC) or UV/VIS detection as the analytical tools. […] For comparison, the corresponding data for the controls are given in parenthesis.

The source of these data is US20030133987A1, “Drug nanoparticles from template emulsions” (priority 2002, published 2003).

With `COc1ccc2cc([C@H](C)C(=O)O)ccc2c1` [Naproxen, naproxen], the “percent of dissolved sample, 5 min” value (5 min) is given as 7%. In addition, where the note is “10 min”, the “percent of dissolved sample, 10 min” value was 11%. In addition, the “percent of dissolved sample, 15 min” value (15 min) was 15%. Further, the “percent of dissolved sample, 60 min” value (60 min) is “(37%)”.
